Assay results from paper PMC12147174, “PEX1^G843D remains functional in peroxisome biogenesis but is rapidly degraded by the proteasome” (The Journal of Biological Chemistry, 2025).
Where a chain is given by its changes, count along the chain named. These are yes or no findings as the source states them, for the method shown. Binding seen in cells or lysates may run through a third protein. Some binding calls cover weakened binding; strength is not graded here. Where a sequence is shown, tags or fusion partners need not be part of it.

Legend:
Test in all cases: co-IP; anti-FLAG M2 agarose from HCT116 lysate in LB1 (60 mM Hepes pH 7.6, 150 mM NaCl, 150 mM KCl, 10 mM MgCl2, 5% glycerol, 0.25 mM ATPγS, 1.0% Triton X-100, 0.5 mM EDTA), 4 °C, eluted with FLAG peptide; immunoblot for PEX6
[1] = target: T1, FLAG-PEX1^G843D (human PEX1 G843D, N-terminal FLAG knock-in) (human (endogenous in HCT116)) (UniProt O43933)
T1 sequence: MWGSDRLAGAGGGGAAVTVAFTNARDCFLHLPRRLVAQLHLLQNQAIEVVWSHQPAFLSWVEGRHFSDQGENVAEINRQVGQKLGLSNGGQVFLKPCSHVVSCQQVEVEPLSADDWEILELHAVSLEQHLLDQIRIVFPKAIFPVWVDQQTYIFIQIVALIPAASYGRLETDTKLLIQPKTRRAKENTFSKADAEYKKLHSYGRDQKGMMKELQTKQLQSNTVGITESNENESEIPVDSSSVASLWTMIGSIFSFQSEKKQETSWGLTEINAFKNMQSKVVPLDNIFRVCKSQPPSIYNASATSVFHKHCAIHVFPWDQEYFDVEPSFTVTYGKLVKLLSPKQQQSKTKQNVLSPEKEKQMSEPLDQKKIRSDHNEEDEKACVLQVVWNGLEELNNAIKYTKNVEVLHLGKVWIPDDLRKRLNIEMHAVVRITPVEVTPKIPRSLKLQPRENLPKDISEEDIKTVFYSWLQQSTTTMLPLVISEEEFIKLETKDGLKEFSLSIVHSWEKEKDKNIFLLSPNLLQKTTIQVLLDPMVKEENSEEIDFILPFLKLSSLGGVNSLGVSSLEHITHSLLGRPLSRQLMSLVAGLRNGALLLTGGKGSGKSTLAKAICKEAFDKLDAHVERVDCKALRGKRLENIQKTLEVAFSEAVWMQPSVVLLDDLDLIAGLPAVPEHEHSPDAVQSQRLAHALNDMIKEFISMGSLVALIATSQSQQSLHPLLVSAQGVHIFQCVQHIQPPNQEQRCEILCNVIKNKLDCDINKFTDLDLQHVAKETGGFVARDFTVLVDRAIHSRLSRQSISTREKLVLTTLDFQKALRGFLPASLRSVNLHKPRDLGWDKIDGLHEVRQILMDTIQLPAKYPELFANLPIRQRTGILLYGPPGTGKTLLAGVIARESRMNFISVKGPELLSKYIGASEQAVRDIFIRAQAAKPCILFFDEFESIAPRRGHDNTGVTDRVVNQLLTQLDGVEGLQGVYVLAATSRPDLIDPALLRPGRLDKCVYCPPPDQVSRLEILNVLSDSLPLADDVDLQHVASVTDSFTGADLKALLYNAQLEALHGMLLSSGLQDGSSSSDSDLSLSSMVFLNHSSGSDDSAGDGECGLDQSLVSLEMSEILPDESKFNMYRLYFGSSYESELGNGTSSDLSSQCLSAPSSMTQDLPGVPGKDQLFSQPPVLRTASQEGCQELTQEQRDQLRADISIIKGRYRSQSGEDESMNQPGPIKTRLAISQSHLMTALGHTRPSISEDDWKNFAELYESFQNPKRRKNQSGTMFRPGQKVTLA

[2] = target: T2, FLAG-PEX1^WT (human PEX1, N-terminal FLAG knock-in) (human (endogenous in HCT116)) (UniProt O43933)
T2 sequence: T1 sequence with D843G

[3] = target: T3, PEX1^G843D-FLAG (human PEX1 G843D, C-terminal FLAG knock-in) (human (endogenous in HCT116)) (UniProt O43933)
T3 sequence: T1 sequence

[4] = target: T4, PEX1^WT-FLAG (human PEX1, C-terminal FLAG knock-in) (human (endogenous in HCT116)) (UniProt O43933)
T4 sequence: T1 sequence with D843G

Measured: binding

B1: PEX6 (human) (protein, UniProt Q13608 1-980)
chain: MALAVLRVLEPFPTETPPLAVLLPPGGPWPAAELGLVLALRPAGESPAGPALLVAALEGPDAGTEEQGPGPPQLLVSRALLRLLALGSGAWVRARAVRRPPALGWALLGTSLGPGLGPRVGPLLVRRGETLPVPGPRVLETRPALQGLLGPGTRLAVTELRGRARLCPESGDSSRPPPPPVVSSFAVSGTVRRLQGVLGGTGDSLGVSRSCLRGLGLFQGEWVWVAQARESSNTSQPHLARVQVLEPRWDLSDRLGPGSGPLGEPLADGLALVPATLAFNLGCDPLEMGELRIQRYLEGSIAPEDKGSCSLLPGPPFARELHIEIVSSPHYSTNGNYDGVLYRHFQIPRVVQEGDVLCVPTIGQVEILEGSPEKLPRWREMFFKVKKTVGEAPDGPASAYLADTTHTSLYMVGSTLSPVPWLPSEESTLWSSLSPPGLEALVSELCAVLKPRLQPGGALLTGTSSVLLRGPPGCGKTTVVAAACSHLGLHLLKVPCSSLCAESSGAVETKLQAIFSRARRCRPAVLLLTAVDLLGRDRDGLGEDARVMAVLRHLLLNEDPLNSCPPLMVVATTSRAQDLPADVQTAFPHELEVPALSEGQRLSILRALTAHLPLGQEVNLAQLARRCAGFVVGDLYALLTHSSRAACTRIKNSGLAGGLTEEDEGELCAAGFPLLAEDFGQALEQLQTAHSQAVGAPKIPSVSWHDVGGLQEVKKEILETIQLPLEHPELLSLGLRRSGLLLHGPPGTGKTLLAKAVATECSLTFLSVKGPELINMYVGQSEENVREVFARARAAAPCIIFFDELDSLAPSRGRSGDSGGVMDRVVSQLLAELDGLHSTQDVFVIGATNRPDLLDPALLRPGRFDKLVFVGANEDRASQLRVLSAITRKFKLEPSVSLVNVLDCCPPQLTGADLYSLCSDAMTAALKRRVHDLEEGLEPGSSALMLTMEDLLQAAARLQPSVSEQELLRYKRIQRKFAAC
binds: [1] | [2] | [3] | [4]
